Data reported in patent US20140369940A1.
These are yes or no findings as the source states them, for the method shown. Some entries that bind do so weakly or less than the wild type.

The chains behind the UniProt entries cited, without tags or fusion partners. Where a name states a change or a piece, a line headed by the entry shows the natural chain unless it says otherwise.
UniProt Q16143: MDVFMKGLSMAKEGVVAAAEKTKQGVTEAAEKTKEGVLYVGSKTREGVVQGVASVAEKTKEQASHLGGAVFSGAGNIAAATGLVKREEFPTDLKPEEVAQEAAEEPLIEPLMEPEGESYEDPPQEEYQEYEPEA

What was measured:
[1] = biological target: T1, human α-synuclein pepscan peptide A01 (residues 1-15) (human); experiment: pepscan
T1 sequence (peptide, C-terminally coupled via a flexible linker to cellulose membrane): MDVFMKGLSKAKEGV

[2] = biological target: synthetic biotinylated α-synuclein peptide 4-30 (human); experiment: in-solution ELISA
[3] = biological target: synthetic biotinylated α-synuclein peptide 1-30 (human); experiment: in-solution ELISA
[4] = biological target: synthetic biotinylated α-synuclein peptide 4-30 (human); experiment: in-solution ELISA, antibody coated at 2 µg/ml, biotinylated peptide
[5] = biological target: synthetic biotinylated α-synuclein peptide 1-30 (human); experiment: as above
[6] = biological target: recombinant mutant β-synuclein M10K (human) (UniProt Q16143); experiment: direct ELISA
[7] = biological target: T1, human α-synuclein pepscan peptide A01 (residues 1-15) (human); experiment: pepscan, immunoblotting

binding [1]: binds
binding [2]: binds
binding [3]: binds
binding [4]: binds
binding [5]: binds
binding [6]: binds
binding [7]: binds
B1: recombinant human monoclonal antibody NI-202.12F4 (antibody, V domains shown)
VH: EVQLVQSGGGLVEPGGSLRLSCAVSGFDFEKAWMSWVRQAPGQGLQWVARIKSTADGGTTSYAAPVEGRFIISRDDSRNMLYLQMNSLKTEDTAVYYCTSAHWGQGTLVTVSS
VL: QSVLTQPPSVSVSPGQTARITCSGEALPMQFAHWYQQRPGKAPVIVVYKDSERPSGVPERFSGSSSGTTATLTITGVQAEDEADYYCQSPDSTNTYEVFGGGTKLTVL
